At least one structure is not confirmed: it was looked up by name or label, or the drawing left a doubt.
Assay: Bioperformance / crash resistance after 10x dilution in FaSSIF or water
Assay type: physicochemical
Conditions: 10× dilution in FaSSIF; for Bioperformance: visual

For `CCCCCCCCCC1=C(C)C(=O)C(C)=C(C)C1=O` [Compound 1, 2,3,5-trimethyl-6-nonylcyclohexa-2,5-diene-1,4-dione], which “Bioperformance risk: clear up to” value (100 mg/g in vehicle 80% Gelucire 44/14, 10% TPGS, 10% Tween 80) is on record?
Its value is “Clear up to 1 h, Started”.

What about the Bioperformance (200 mg/g in vehicle 70% Gelucire 44/14, 10% TPGS, 20% Tween 80) of the same compound?
Its Bioperformance is “precipitates”.

What about the Bioperformance (200 mg/g in vehicle 80% Gelucire 44/14, 20% Tween 80) of the same compound?
Its Bioperformance is “precipitates”.

What about the Bioperformance (200 mg/g in vehicle 90% Gelucire 44/14, 10% Tween 80) of the same compound?
Its Bioperformance is “precipitates”.

From patent US11786486B2, “Pharmaceutical compositions comprising 2,3,5-trimethyl-6-nonylcyclohexa-2,5-diene-1,4-dione” (PTC THERAPEUTICS, INC., priority 2021, dated 2023)
